experiment: soluble on expression in E. coli; label from the status in PepcDB or PDB records

Row | Sequence | soluble on expression in E. coli
1 | MQTEISWHSINWAKANREVKRLQVRIAKAVKEGRWGKVKALQWLLTHSFYGKALAVKRVTDNSGSKTPGVDGITWSTQEQKTQAIKSLRRRGYKPQPLRRVYIPKANGKQRPLGIPTMRDRAMQALYALALEPVAETTADRNSYGFRRGRSTADAAGQCFITLARADSATYVPDADISGCFDNISHEWLLANIPLDKEILRKWLKSGFVWKQQLFPTHAGTPQGGVISPILANMALDGMEELLNEALQKSQSPSHLEHHHHHH | soluble
2 | MSKATSACSQKKTSLLDPSPKKSSVIETTTKKTSGIESKLLPNELPSTGTTGTSGVKNGASSPKTSPAKTTTTTTTVVTQKVSNQPTAPISTLPPRKPTAQKSRELSPPKAKKSPSPSRTGSGDSGSRKESSASRKDSSKTEKLVKDLENVKLEKGDSRESATLPTPKQYPASDDEEDTKERKSLRFGTTTEWQSDNLEEFYREHEKFPNAEAVKKFGQMYSMTELIAETWLETRRQQTYQKYVEKGLQTDPSVIQFYCESLKIAEGLRLENPSIQTKSFFSLNGVNALEQKKEEEEKMQPVISVSSNKVFISPKKEQKCQLTIKNDGEVNVVYQISIMNAANYVMSPICAILLPKEELTLNITRKPGKLLEEEFFRIDYGVAPEGIIDARDSSDRAEFTNREIIEVVEIDEKEMKIVR | not soluble
3 | MSLAAIRTPRDRWPHHHRNEVTEIIPLDGFLDGLALYDELDFAELDDLDLGDDCVFDYEAQLLAAPELDDLDDADDLAPEWLVAPTVVLTPEVTPVSRRVGQHRKQPIGAARGRLLISAMAAGAAAAAAHTAIQQSETPRTETVLTAHASALNEGSGSNPPRGVQVIAAQPAASAAVHNAEFARGVAFAEERAEREARLQRPLYVMPTKGIFTSSFGYRWGVLHAGIDLANAIGTPIYAVSDGVVIDAGPTAGYGMWVKLLHADGTVTLYGHVNTTLVSVGERVMAGDQIATMGSRGFSTGPHLHFEVLLGGTERVDPVPWLAKRGLSVGNYTGEGHHHHHH | not soluble
4 | MSLEDWTRPLGGRRALVTGAARGIGAAIAETLARDGADVLLLDVPQASKDLDALAARLGGKALPLDICASDAATQLLAALPDGIDIVVHNAGITRDKTLVNMTPEYWDAVLAVNLKAPQVLTQALYDNGALGENARITLLASVSGIAGNRGQANYAASKAGLIGLAQAWAPRLAERGGSINAIAPGFIETHMTAAMPMGLREAGRRLSSLGQGGSPQDVAEAIAWLSQPGSGSVNGQVLRVCGQALMGAEGHHHHHH | not soluble
5 | MTRSPGENLSVAAHRATLTDRYAAWREQGFDANRCPVRNVLDHLGSKWSTLLLIALAEKPMRFNALLRDVPDISKRMLTQTLRDLERDGLVARQVFPTKPPSVEYRLSASGESVLAPLTALVAWAEQHFPEIERARARFDSAARDGEPQVPGDSARPESPLALAPLPVRG | not soluble
6 | MTSLIDSRVLYESDFSIFNGRLCSLRISAVTNNEEGIEKIRITSPSDATILLDTSISSDECSSFIEILKEISTARKSDPSILGPRIETIHSENEYPFQMVIEPINREKHSGKTLPLSHPPPQERCDYVLQLYAKEKVQHQSQKTKVEELTKQLQQARVDYNTLKQRCDFQEKEIALLRQITSSTGSGNRKRSRDDSETTHIKKRRCGCGDDGESCGSDCDGMDDDEEDETDTDVQMFRAATAQLQMAAAGRNTQNGTSSHQKLKRKIPKSQSVSIGNARGMVTLPNLLQPKLEESDDGYNYSGRSSTQSNIDKLELAVRRESIVDIGRAVIDGIKNKTLTENQLEEFCKTTHRPNISIFRFYKDSEECTKEENEAIMMGQTVMMKMLDPQEKAIAGVQASISSLSASFANQTKLGLIKHQRLTRSYVTLPVDYFPSIDLTEAYNSSNLFGADATMQLTNFYQTVLKNVLNPVYMIWIYTYRPSTVRTCDKHFVEFPQNVITTLFDMTTDIVGLYLPEYLLDGEIDPMDPFLLTIDAVDPFEEIMRRRTERKLANTTFNHALGRAMKNLRSYHYDPTRGILLNCSEKKNCGMHLQWEQMRKFREYCRKENVACDDATPEEMIAFNLRASKVHYEDYSPGNVSSEEGNKNEMPNFMEQLEKFSSVIVKGPNLPSTSTMSTMHIKMENGKEQSGPLLLRNSPNDQNQKVVGVVQYVICQLCPEEEQKSMDLSNQKQMEEHFLNKHVDKEKKKCEACPSDQFQPHNIGQHYRLHTNSVFACEHCGKRGRRNFLKTHIRTHTGERPYRCDTCSKSFTDASTLRRHGLVHTGEKKYQCPVCGRAIARKDNVKAHIRSHGIQI | not soluble

Reference: the DeepSol protein solubility set
